Experimental data as given in the supplement of paper PMC6078165.

System: MDAMB231
Experiment: relative JC-1 red fluorescence (viability) vs pre-drug, coculture with fibroblast (fraction); higher = more viable cancer cells
Procedure: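 JC-1 labelled TNBC cells cocultured 1:1 (1,500 cells each) with CellTrace Violet stained primary or stromal fibroblasts in 384-well plates in FluoroBrite medium, treated with one of 42 anticancer drugs at 0.1, 1, 10 or 100 uM. JC-1 red fluorescence (mitochondrial integrity in cancer cells only) was read by plate reader every 8 h for 72 h. Values are normalised to each well's pre-drug value. The stock of one drug was tenfold lower, so its dose labels may be too high.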

CC(=O)O[C@@]12CO[C@@H]1C[C@H](O)[C@@]1(C)C(=O)[C@H](O)C3=C(C)[C@@H](OC(=O)[C@H](O)[C@@H](NC(=O)OC(C)(C)C)c4ccccc4)C[C@@](O)([C@@H](OC(=O)c4ccccc4)[C@H]21)C3(C)C [Docetaxel]
relative JC-1 red fluorescence
Conditions	8 h	16 h	24 h	32 h	40 h	48 h	56 h	64 h	72 h
0.1 µM, coculture fibroblast: C12385	0.783	0.711	0.647	0.582	0.516	0.484	0.449	0.464	0.464
0.1 µM, coculture fibroblast: H6013	0.8865	0.813	0.775	0.734	0.673	0.658	0.646	0.63	0.607
0.1 µM, coculture fibroblast: H6019	0.746	0.68	0.642	0.578	0.542	0.541	0.518	0.535	0.529
0.1 µM, coculture fibroblast: H6076	0.852	0.77	0.695	0.668	0.627	0.599	0.587	0.583	0.598
0.1 µM, coculture fibroblast: H6231	0.911	0.794	0.705	0.656	0.606	0.5694	0.526	0.512	0.495
0.1 µM, coculture fibroblast: HADF	0.875	0.8302	0.78	0.722	0.671	0.635	0.597	0.585	0.551
0.1 µM, coculture fibroblast: HCFa	0.873	0.814	0.762	0.696	0.643	0.595	0.552	0.518	0.477
0.1 µM, coculture fibroblast: HCPF	0.889	0.78	0.695	0.658	0.599	0.56	0.5258	0.499	0.4898
0.1 µM, coculture fibroblast: HHSteC	0.9102	0.888	0.829	0.738	0.673	0.645	0.598	0.584	0.557
0.1 µM, coculture fibroblast: HMF	0.8943	0.792	0.711	0.662	0.595	0.556	0.505	0.497	0.491
0.1 µM, coculture fibroblast: HPFa	0.9629	0.8906	0.818	0.757	0.734	0.702	0.653	0.632	0.5853
0.1 µM, coculture fibroblast: HUF	0.857	0.709	0.735	0.612	0.551	0.544	0.504	0.526	0.525
0.1 µM, coculture fibroblast: Hs5	0.867	0.797	0.7352	0.6879	0.6486	0.601	0.581	0.566	0.548
0.1 µM, coculture fibroblast: Hs27A	0.8947	0.82	0.7766	0.737	0.679	0.629	0.621	0.604	0.569
0.1 µM, coculture fibroblast: Hs343T	0.8852	0.75	0.654	0.605	0.537	0.49	0.439	0.428	0.41602
0.1 µM, coculture fibroblast: WS1	0.751	0.663	0.599	0.517	0.461	0.438	0.402	0.41	0.409
1 µM, coculture fibroblast: C12385	0.8	0.776	0.728	0.678	0.618	0.604	0.572	0.597	0.606
1 µM, coculture fibroblast: H6013	0.887	0.836	0.7883	0.763	0.694	0.704	0.684	0.694	0.675
1 µM, coculture fibroblast: H6019	0.734	0.62	0.634	0.557	0.538	0.546	0.531	0.57	0.55
1 µM, coculture fibroblast: H6076	0.8657	0.752	0.672	0.652	0.6127	0.585	0.5704	0.578	0.5856
1 µM, coculture fibroblast: H6231	0.9139	0.829	0.753	0.716	0.658	0.64	0.603	0.595	0.577
1 µM, coculture fibroblast: HADF	0.868	0.829	0.746	0.699	0.647	0.637	0.622	0.615	0.592
1 µM, coculture fibroblast: HCFa	0.9	0.8235	0.782	0.728	0.667	0.638	0.594	0.566	0.527
1 µM, coculture fibroblast: HCPF	0.906	0.854	0.763	0.759	0.729	0.698	0.693	0.671	0.668
1 µM, coculture fibroblast: HHSteC	0.9238	0.869	0.816	0.748	0.68	0.6507	0.6043	0.593	0.5485
1 µM, coculture fibroblast: HMF	0.871	0.7686	0.684	0.647	0.6	0.571	0.529	0.522	0.5029
1 µM, coculture fibroblast: HPFa	0.9531	0.9112	0.8534	0.77118	0.74738	0.7218	0.665	0.64875	0.6102
1 µM, coculture fibroblast: HUF	0.856	0.761	0.739	0.618	0.562	0.545	0.51	0.517	0.497
1 µM, coculture fibroblast: Hs5	0.849	0.774	0.724	0.688	0.65	0.6057	0.588	0.574	0.571
1 µM, coculture fibroblast: Hs27A	0.904	0.8696	0.82096	0.756	0.7207	0.674	0.671	0.657	0.626
1 µM, coculture fibroblast: Hs343T	0.888	0.767	0.653	0.591	0.515	0.465	0.413	0.387	0.371
1 µM, coculture fibroblast: WS1	0.732	0.632	0.592	0.52	0.477	0.469	0.441	0.46	0.455

The reference is the same well before dosing, and untreated signal decays as well.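 Fibroblast labels name human fibroblasts: mostly primary ones from tissues such as uterus (C12385, HUF), lung (H6013), bone (Hs27A), adrenal (HADF) and skin (WS1), plus mammary HMF and breast cancer-associated Hs343T. The cancer cells are basal-like or mesenchymal-like triple-negative breast cancer lines. The paper calls a changed response a hit when it shifts by more than 3x the replicate standard deviation. The tissue of the other fibroblasts is not given here.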
